Reference: publication PMC11061230

Amino acid sequences for entries named in this document (tags omitted).
UniProt Q9UIH9: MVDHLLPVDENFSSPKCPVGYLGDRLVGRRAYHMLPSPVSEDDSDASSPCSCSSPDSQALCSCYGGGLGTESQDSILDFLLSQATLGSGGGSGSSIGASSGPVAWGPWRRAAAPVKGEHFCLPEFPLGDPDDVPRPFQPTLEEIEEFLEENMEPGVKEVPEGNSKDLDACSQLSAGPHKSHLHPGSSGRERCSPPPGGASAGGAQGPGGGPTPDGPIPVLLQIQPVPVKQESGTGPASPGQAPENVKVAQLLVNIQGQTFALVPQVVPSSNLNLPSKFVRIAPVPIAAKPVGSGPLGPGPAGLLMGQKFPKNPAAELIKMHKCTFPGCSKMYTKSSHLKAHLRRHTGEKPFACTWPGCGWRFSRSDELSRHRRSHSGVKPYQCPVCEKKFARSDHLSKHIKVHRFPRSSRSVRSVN

Target: Flag-KLF15 (Krüppel-like factor 15) (UniProt Q9UIH9)
Experiment: affinity purification with mass spectrometry; HEK293T cells transfected with Flag-KLF15 (controls: pcDNA, Myc-KLF15) for 30 h, lysed in RIPA buffer with protease inhibitors; precipitated with ANTI-FLAG-M2 affinity gel; SDS-PAGE, silver staining, stained proteins excised for LC-MS/MS

B1: myocardin-related transcription factor B (MRTFB), endogenous in HEK293T (protein, UniProt Q9ULH7 1-1088)
chain: MIDSSKKQQQGFPEILTAGDFEPLKEKECLEGSNQKSLKEVLQLRLQQRRTREQLVDQGIMPPLKSPAAFHEQIKSLERARTENFLKHKIRSRPDRSELVRMHILEETFAEPSLQATQMKLKRARLADDLNEKIAQRPGPMELVEKNILPVDSSVKEAIIGVGKEDYPHTQGDFSFDEDSSDALSPDQPASQESQGSAASPSEPKVSESPSPVTTNTPAQFASVSPTVPEFLKTPPTADQPPPRPAAPVLPTNTVSSAKPGPALVKQSHPKNPNDKHRSKKCKDPKPRVKKLKYHQYIPPDQKGEKNEPQMDSNYARLLQQQQLFLQLQILSQQKQHYNYQTILPAPFKPLNDKNSNSGNSALNNATPNTPRQNTSTPVRKPGPLPSSLDDLKVSELKTELKLRGLPVSGTKPDLIERLKPYQEVNSSGLAAGGIVAVSSSAIVTSNPEVTVALPVTTLHNTVTSSVSTLKAELPPTGTSNATRVENVHSPLPISPSPSEQSSLSTDDTNMADTFTEIMTMMSPSQFLSSSPLRMTNNEDSLSPTSSTLSNLELDAAEKDRKLQEKEKQIEELKRKLEQEQKLVEVLKMQLEVEKRGQQQRPLEAQPSAPGHSVKSDQKHGSLGSSIKDEASLPDCSSSRQPIPVASHAVGQPVSTGGQTLVAKKAVVIKQEVPVGQAEQQSVVSQFYVSSQGQPPPAVVAQPQALLTTQTAQLLLPVSIQGSSVTSVQLPVGSLKLQTSPQAGMQTQPQIATAAQIPTAALASGLAPTVPQTQDTFPQHVLSQPQQVRKVFTNSASSNTVLPYQRHPAPAVQQPFINKASNSVLQSRNAPLPSLQNGPNTPNKPSSPPPPQQFVVQHSLFGSPVAKTKDPPRYEEAIKQTRSTQAPLPEISNAHSQQMDDLFDILIKSGEISLPIKEEPSPISKMRPVTASITTMPVNTVVSRPPPQVQMAPPVSLEPMGSLSASLENQLEAFLDGTLPSANEIPPLQSSSEDREPFSLIEDLQNDLLSHSGMLDHSHSPMETSETQFAAGTPCLSLDLSDSNLDNMEWLDITMPNSSSGLTPLSTTAPSMFSADFLDPQDLPLPWD
binding: binds

These are yes or no findings as the source states them, for the method shown. In cells and extracts the contact can be indirect. These calls come from enrichment with a bait or labelling near it, and not all partners need be listed.
